In US20130066055A1, “NEW BINDER-DRUG CONJUGATES (ADCS) AND USE THEREOF” (Bayer Intellectual Property GmbH, priority 2011, published 2013):
No constants are given. Whether binding was seen depends on the method and setting. Some binding calls cover weakened binding; strength is not graded here.

The chains behind the UniProt entries cited, without tags or fusion partners. Residues count along the entry.
UniProt O95274, residues 31-326: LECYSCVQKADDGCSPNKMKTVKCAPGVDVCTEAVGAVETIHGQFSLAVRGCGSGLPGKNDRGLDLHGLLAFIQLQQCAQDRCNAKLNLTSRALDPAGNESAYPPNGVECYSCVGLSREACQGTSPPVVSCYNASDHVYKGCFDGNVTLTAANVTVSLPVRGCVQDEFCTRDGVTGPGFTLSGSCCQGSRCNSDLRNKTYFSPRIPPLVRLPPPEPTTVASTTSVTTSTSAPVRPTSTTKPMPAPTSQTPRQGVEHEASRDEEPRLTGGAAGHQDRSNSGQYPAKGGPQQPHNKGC

target: C4.4a (UniProt O95274); test: competitor M31-B01; method not given

binding	Binder
binds	anti-C4.4a antibody B01-8 (antibody, V domains shown) VH: EVQLLESGGGLVQPGGSLRLSCAASGFTFSNAWMSWVRQAPGKGLEWVSYISSSGSTIYYADSVKGRFTISRDNSKNTLYLQMNSLRAEDTAVYYCAREGLWAFDYWGQGTLVTVSS VL: QSVLTQPPSVSGAPGQRVTISCTGSSSNIGAGYVVHWYQQLPGTAPKLLIYDNNKRPSGVPDRFSGSKSGTSASLAISGLRSEDEADYYCAAFDDSLNGPVFGGGTKLTVLG
binds	anti-C4.4a antibody B01-11 (antibody, V domains shown) VH: EVQLLESGGGLVQPGGSLRLSCAASGFTFSSAWMSWVRQAPGKGLEWVSYISSSGSSTYYADSVKGRFTISRDNSKNTLYLQMNSLRAEDTAVYYCAREGLWAFDKWGQGTLVTVSS VL: QSVLTQPPSASGTPGQRVTISCSGSSSNIGAGYVVHWYQQLPGTAPKLLIYDNNQRPSGVPDRFSGSKSGTSASLAISGLRSEDEADYYCAAFDDSLNGPVFGGGTKLTVLG
binds	anti-C4.4a antibody B01-2 (antibody, V domains shown) VH: EVQLLESGGGLVQPGGSLRLSCAASGFTFSSAWMSWVRQAPGKGLEWVSYISSSGSSTYYADSVKGRFTISRDNSKNTLYLQMNSLRAEDTAVYYCAREGLWAFDYWGQGTLVTVSS VL: ESVLTQPPSASGTPGQRVTISCSGSSSNIGAGYVVHWYQQLPGTAPKLLIYDNNQRPSGVPDRFSGSKSGTSASLAISGLRSEDEADYYCAAWDDRLNGPVFGGGTKLTVLG
binds	anti-C4.4a antibody B01-4 (antibody, V domains shown) VH: EVQLLESGGGLVQPGGSLRLSCAASGFTFSNAWMSWVRQAPGKGLEWVSYISSSGSTIYYADSVKGRFTISRDNSKNTLYLQMNSLRAEDTAVYYCAREGLWAFDYWGQGTLVTVSS VL: ESVLTQPPSVSGAPGQRVTISCTGSSSNIGAGYVVHWYQQLPGTAPKLLIYDNNKRPSGVPDRFSGSKSGTSASLAISGLRSEDEADYYCAAYDDRLNGPVFGGGTKLTVLG
binds	anti-C4.4a antibody B01-9 (antibody, V domains shown) VH: EVQLLESGGGLVQPGGSLRLSCAASGFTFSSAWMSWVRQAPGKGLEWVSYISSSGSSTYYADSVKGRFTISRDNSKNTLYLQMNSLRAEDTAVYYCAREGLWAFDKWGQGTLVTVTS VL: QSVLTQPPSASGTPGQRVTISCTGSSSNIGAGYVVHWYQQLPGTAPKLLIYDNNKRPSGVPDRFSGSKSGTSASLAISGLRSEDEADYYCAAFDDSLNGPVFGGGTKLTVLG
binds	anti-C4.4a antibody B01-12 (antibody, V domains shown) VH: EVQLLESGGGLVQPGGSLRLSCAASGFTFSSAWMSWVRQAPGKGLEWVSYISSSGSSTYYADSVKGRFTISRDNSKNTLYLQMNSLRAEDTAVYYCAREGLWAFDKWGQGTLVTVSS VL: QSVLTQPPSASGTPGQRVTISCSGSSSNIGAGYVVHWYQQLPGTAPKLLIYDNNQRPSGVPDRFSGSKSGTSASLAISGLRSEDEADYYCAAFDDRLSGPVFGGGTKLTVLG
binds	anti-C4.4a antibody B01-5 (antibody, V domains shown) VH: EVQLLESGGGLVQPGGSLRLSCAASGFTFSNAWMSWVRQAPGKGLEWVSYISSSGSTIYYADSVKGRFTISRDNSKNTLYLQMNSLRAEDTAVYYCAREGLWAFDYWGQGTLVTVSS VL: QSVLTQPPSVSGAPGQRVTISCTGSSSNIGAGYVVHWYQQLPGTAPKLLIYDNNKRPSGVPDRFSGSKSGTSASLAISGLRSEDEADYYCAAYDDSLSGPVFGGGTKLTVLG
binds	anti-C4.4a antibody B01-7 (antibody, V domains shown) VH: EVQLLESGGGLVQPGGSLRLSCAASGFTFSNAWMSWVRQAPGKGLEWVSYISSSGSTIYYADSVKGRFTISRDNSKNTLYLQMNSLRAEDTAVYYCAREGLWAFDKWGQGTLVTVSS VL: QSVLTQPPSASGTPGQRVTISCTGSSSNIGAGYVVHWYQQLPGTAPKLLIYDNNKRPSGVPDRFSGSKSGTSASLAISGLRSEDEADYYCAAFDDRLNGPVFGGGTKLTVLG
binds	anti-C4.4a antibody B01-6 (antibody, V domains shown) VH: EVQLLESGGGLVQPGGSLRLSCAASGFTFSSAWMSWVRQAPGKGLEWVSYISSSGSSTYYADSVKGRFTISRDNSKNTLYLQMNSLRAEDTAVYYCAREGLWAFDGWGQGTLVTVSS VL: QSVLTQPPSASGTPGQRVTISCSGSSSNIGAGYVVHWYQQLPGTAPKLLIYDNNQRPSGVPDRFSGSKSGTSASLAISGLRSEDEADYYCAAYDDSLNRPVFGGGTKLTVLG
binds	anti-C4.4a antibody B01-10 (antibody, V domains shown) VH: EVQLLESGGGLVQPGGSLRLSCAASGFTFSSAWMSWVRQAPGKGLEWVSYISSSGSTIYYADSVKGRFTISRDNSKNTLYLQMNSLRAEDTAVYYCAREGLWAFDYWGQGTLVTVSS VL: QSVLTQPPSVSGAPGQRVTISCTGSSSNIGAGYVVHWYQQLPGTAPKLLIYDNNKRPSGVPDRFSGSKSGTSASLAISGLRSEDEADYYCAAYDDSLSGPVFGGGTKLTVLG
